Some of these results come from one statement about several compounds together. At least one compound was matched to its structure with a doubt left.
Experiments:
AhR4DT-1 = AhR4DT-1 (Arachis hypogaea, UniProt A0A2H4GDC8); assay: AhR4DT-1 activity in microsomal fraction of N. benthamiana leaves; conditions: 10 mM divalent cation or EDTA
AhR3′DT-1 = AhR3′DT-1 (Arachis hypogaea, UniProt A0A2H4GDD0); assay: AhR3′DT-1 activity in microsomal fraction of N. benthamiana leaves; conditions: 10 mM divalent cation or EDTA

The chains behind the UniProt entries cited, without tags or fusion partners.
UniProt A0A2H4GDC8, entry or part of it: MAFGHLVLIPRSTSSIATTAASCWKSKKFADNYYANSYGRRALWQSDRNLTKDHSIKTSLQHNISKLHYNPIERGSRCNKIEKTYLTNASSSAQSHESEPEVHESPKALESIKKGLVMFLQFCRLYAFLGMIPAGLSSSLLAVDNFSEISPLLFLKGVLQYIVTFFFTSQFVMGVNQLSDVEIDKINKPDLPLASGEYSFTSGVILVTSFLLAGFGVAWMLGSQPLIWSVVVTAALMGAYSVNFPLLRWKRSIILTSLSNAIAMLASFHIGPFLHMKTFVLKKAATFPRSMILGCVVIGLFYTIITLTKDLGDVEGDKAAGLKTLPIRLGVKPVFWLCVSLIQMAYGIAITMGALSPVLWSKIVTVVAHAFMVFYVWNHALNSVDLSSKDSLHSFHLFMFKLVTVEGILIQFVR
UniProt A0A2H4GDD0, entry or part of it: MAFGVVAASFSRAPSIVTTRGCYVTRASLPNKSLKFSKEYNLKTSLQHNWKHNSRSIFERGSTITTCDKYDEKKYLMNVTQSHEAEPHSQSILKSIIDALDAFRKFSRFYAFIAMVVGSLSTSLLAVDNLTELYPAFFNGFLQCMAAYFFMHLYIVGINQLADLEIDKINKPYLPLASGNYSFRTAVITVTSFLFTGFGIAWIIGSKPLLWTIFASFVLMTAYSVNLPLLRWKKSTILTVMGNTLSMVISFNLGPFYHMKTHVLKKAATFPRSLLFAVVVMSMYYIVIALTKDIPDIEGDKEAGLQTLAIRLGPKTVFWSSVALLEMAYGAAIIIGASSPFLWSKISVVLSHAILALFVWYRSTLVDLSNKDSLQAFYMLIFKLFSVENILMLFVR

## [Ca+2] [Ca^2+]
AhR4DT-1
  AhR4DT-1 activity relative to Mg^2+: < 0.5%
AhR3′DT-1
  AhR3′DT-1 activity relative to Mg^2+: < 0.5%

Reference: patent publication US11535856B2, “Stilbenoid prenyltransferases from plants” (Arkansas State University—Jonesboro, priority 2016, dated 2022)
